Test results published in publication PMC7791037.
Where a chain is given by its changes, count along the chain named. No constants are given. Whether binding was seen depends on the method and setting. Binding seen in cells or lysates may run through a third protein. Some binding calls cover weakened binding; strength is not graded here. Where a sequence is shown, tags or fusion partners need not be part of it.

Chains of the proteins cited; added tags and fusions are not shown.
UniProt P78560: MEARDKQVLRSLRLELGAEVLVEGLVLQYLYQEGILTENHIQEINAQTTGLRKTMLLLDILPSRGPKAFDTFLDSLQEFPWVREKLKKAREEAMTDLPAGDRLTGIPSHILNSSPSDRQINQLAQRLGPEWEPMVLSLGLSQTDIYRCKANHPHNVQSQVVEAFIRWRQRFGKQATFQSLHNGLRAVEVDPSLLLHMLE

Legend:
Experiment in all cases: co-IP; FLAG-tagged PIDD1 variants overexpressed in HEK293T cells, lysed after 24 h, precipitated with FLAG-M2 agarose beads; western blot for FLAG-PIDD1 and endogenous CRADD in IP sample and flow through
[1] = target: T1, C-terminally FLAG-tagged PIDD1 G876S (human) (UniProt Q9HB75)
T1 sequence: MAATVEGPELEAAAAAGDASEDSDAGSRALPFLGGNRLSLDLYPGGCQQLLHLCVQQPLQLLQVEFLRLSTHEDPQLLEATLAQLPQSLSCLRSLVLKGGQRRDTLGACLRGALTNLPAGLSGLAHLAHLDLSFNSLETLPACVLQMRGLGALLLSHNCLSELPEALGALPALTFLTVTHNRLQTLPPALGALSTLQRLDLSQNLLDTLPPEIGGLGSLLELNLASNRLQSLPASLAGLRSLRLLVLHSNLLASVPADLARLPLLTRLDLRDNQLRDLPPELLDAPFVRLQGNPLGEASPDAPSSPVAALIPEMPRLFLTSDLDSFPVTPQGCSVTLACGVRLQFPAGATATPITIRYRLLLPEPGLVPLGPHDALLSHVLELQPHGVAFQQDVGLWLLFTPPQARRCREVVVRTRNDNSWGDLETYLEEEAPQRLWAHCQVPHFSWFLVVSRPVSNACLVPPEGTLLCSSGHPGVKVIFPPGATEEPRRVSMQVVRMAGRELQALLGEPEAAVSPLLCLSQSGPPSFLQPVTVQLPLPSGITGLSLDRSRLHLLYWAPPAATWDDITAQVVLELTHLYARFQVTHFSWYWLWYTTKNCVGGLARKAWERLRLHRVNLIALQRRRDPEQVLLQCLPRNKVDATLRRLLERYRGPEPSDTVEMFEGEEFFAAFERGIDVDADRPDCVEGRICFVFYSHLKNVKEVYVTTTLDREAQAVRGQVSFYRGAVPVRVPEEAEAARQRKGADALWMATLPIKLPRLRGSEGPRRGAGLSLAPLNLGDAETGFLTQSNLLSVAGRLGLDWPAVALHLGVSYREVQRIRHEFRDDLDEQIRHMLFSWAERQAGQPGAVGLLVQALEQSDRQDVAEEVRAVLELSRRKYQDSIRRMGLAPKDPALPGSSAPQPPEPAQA

[2] = target: T2, C-terminally FLAG-tagged PIDD1 Q863* (human) (UniProt Q9HB75)
T2 sequence: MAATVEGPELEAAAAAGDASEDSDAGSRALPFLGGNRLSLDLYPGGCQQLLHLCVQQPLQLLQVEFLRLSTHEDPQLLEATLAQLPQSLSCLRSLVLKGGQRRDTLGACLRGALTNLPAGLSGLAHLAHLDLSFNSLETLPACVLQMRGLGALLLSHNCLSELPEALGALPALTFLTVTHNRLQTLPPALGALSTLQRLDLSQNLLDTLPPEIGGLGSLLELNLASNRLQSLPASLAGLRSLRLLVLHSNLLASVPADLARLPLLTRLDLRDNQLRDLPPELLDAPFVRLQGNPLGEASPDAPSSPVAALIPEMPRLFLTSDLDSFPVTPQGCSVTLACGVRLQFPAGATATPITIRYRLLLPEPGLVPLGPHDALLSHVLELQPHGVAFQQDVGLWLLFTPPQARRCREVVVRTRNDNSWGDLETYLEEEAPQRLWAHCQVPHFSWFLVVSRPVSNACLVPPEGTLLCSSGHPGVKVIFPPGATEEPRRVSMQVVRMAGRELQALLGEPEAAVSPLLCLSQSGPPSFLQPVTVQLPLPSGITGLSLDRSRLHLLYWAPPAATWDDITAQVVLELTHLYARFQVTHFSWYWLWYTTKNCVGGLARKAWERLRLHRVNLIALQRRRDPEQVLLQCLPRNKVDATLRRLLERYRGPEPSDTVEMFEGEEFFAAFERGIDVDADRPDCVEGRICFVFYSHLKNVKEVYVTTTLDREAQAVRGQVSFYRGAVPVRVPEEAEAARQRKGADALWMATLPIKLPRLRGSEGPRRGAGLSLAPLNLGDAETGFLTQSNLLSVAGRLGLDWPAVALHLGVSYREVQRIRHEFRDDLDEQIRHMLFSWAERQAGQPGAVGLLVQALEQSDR

[3] = target: T3, C-terminally FLAG-tagged WT PIDD1 (p53-Induced Death Domain protein 1) (human) (UniProt Q9HB75)
T3 sequence: T1 sequence with S876G

endogenous CRADD (caspase and RIP adaptor with death domain) (from UniProt P78560 1-199)
binding [1]: binds
binding [2]: no binding
binding [3]: binds
